We go through 11 molecules from patent US12729225B2, “Non-canonical SWI/SNF complex and uses thereof” (Dana-Farber Cancer Institute, Inc., priority 2018, dated 2026).

The data set concerns mSWI/SNF complexes. Put plainly: mSWI/SNF complex purification with HA-tagged baits and mass spectrometry (peptide counts). More on the design: species or system human. The settings on record: 293_HA-BRD7 bait purification, mass spectrometry; for Total: total peptide count per identified protein; for Unique: unique peptide count per identified protein.

B1: RAB11FIP5 (protein, UniProt Q9BXF6 1-653, looked up)
Rab11 family-interacting …: MALVRGAEPAAGPSRWLPTHVQVTVLRARGLRGKSSGAGSTSDAYTVIQVGREKYSTSVVEKTHGCPEWREECSFELPPGALDGLLRAQEADAGPAPWAASSAAACELVLTTMHRSLIGVDKFLGQATVALDEVFGAGRAQHTQWYKLHSKPGKKEKERGEIEVTIQFTRNNLSASMFDLSMKDKPRSPFSKIRDKMKGKKKYDLESASAILPSSAIEDPDLGSLGKMGKAKGFFLRNKLRKSSLTQSNTSLGSDSTLSSASGSLAYQGPGAELLTRSPSRSSWLSTEGGRDSAQSPKLFTHKRTYSDEANQMRVAPPRALLDLQGHLDAASRSSLCVNGSHIYNEEPQGPVRHRSSISGSLPSSGSLQAVSSRFSEEGPRSTDDTWPRGSRSNSSSEAVLGQEELSAQAKVLAPGASHPGEEEGARLPEGKPVQVATPIVASSEAVAEKEGARKEERKPRMGLFHHHHQGLSRSELGRRSSLGEKGGPILGASPHHSSSGEEKAKSSWFGLREAKDPTQKPSPHPVKPLSAAPVEGSPDRKQSRSSLSIALSSGLEKLKTVTSGSIQPVTQAPQAGQMVDTKRLKDSAVLDQSAKYYHLTHDELISLLLQRERELSQRDEHVQELESYIDRLLVRIMETSPTLLQIPPGPPK
With B1, the Total is listed as 1 and the Unique amounted to 1.

B2: NR2F1 (protein, UniProt P10589 1-423, looked up)
COUP transcription factor 1: MAMVVSSWRDPQDDVAGGNPGGPNPAAQAARGGGGGAGEQQQQAGSGAPHTPQTPGQPGAPATPGTAGDKGQGPPGSGQSQQHIECVVCGDKSSGKHYGQFTCEGCKSFFKRSVRRNLTYTCRANRNCPIDQHHRNQCQYCRLKKCLKVGMRREAVQRGRMPPTQPNPGQYALTNGDPLNGHCYLSGYISLLLRAEPYPTSRYGSQCMQPNNIMGIENICELAARLLFSAVEWARNIPFFPDLQITDQVSLLRLTWSELFVLNAAQCSMPLHVAPLLAAAGLHASPMSADRVVAFMDHIRIFQEQVEKLKALHVDSAEYSCLKAIVLFTSDACGLSDAAHIESLQEKSQCALEEYVRSQYPNQPSRFGKLLLRLPSLRTVSSSVIEQLFFVRLVGKTPIETLIRDMLLSGSSFNWPYMSIQCS
With B2, the Total was determined as 1 and the Unique amounted to 1.

B3: SARNP (protein, UniProt P82979 2-210, looked up)
SAP domain-containing …: ATETVELHKLKLAELKQECLARGLETKGIKQDLIHRLQAYLEEHAEEEANEEDVLGDETEEEETKPIELPVKEEEPPEKTVDVAAEKKVVKITSEIPQTERMQKRAERFNVPVSLESKKAARAARFGISSVPTKGLSSDNKPMVNLDKLKERAQRFGLNVSSISRKSEDDEKLKKRKERFGIVTSSAGTGTTEDTEAKKRKRAERFGIA
With B3, the Total was found to be 1 and the Unique is on record as 1.

B4: AASS (protein, UniProt Q9UDR5 28-926, looked up)
Alpha-aminoadipic …: VRREDVNAWERRAPLAPKHIKGITNLGYKVLIQPSNRRAIHDKDYVKAGGILQEDISEACLILGVKRPPEEKLMSRKTYAFFSHTIKAQEANMGLLDEILKQEIRLIDYEKMVDHRGVRVVAFGQWAGVAGMINILHGMGLRLLALGHHTPFMHIGMAHNYRNSSQAVQAVRDAGYEISLGLMPKSIGPLTFVFTGTGNVSKGAQAIFNELPCEYVEPHELKEVSQTGDLRKVYGTVLSRHHHLVRKTDAVYDPAEYDKHPERYISRFNTDIAPYTTCLINGIYWEQNTPRLLTRQDAQSLLAPGKFSPAGVEGCPALPHKLVAICDISADTGGSIEFMTECTTIEHPFCMYDADQHIIHDSVEGSGILMCSIDNLPAQLPIEATECFGDMLYPYVEEMILSDATQPLESQNFSPVVRDAVITSNGTLPDKYKYIQTLRESRERAQSLSMGTRRKVLVLGSGYISEPVLEYLSRDGNIEITVGSDMKNQIEQLGKKYNINPVSMDICKQEEKLGFLVAKQDLVISLLPYVLHPLVAKACITNKVNMVTASYITPALKELEKSVEDAGITIIGELGLDPGLDHMLAMETIDKAKEVGATIESYISYCGGLPAPEHSNNPLRYKFSWSPVGVLMNVMQSATYLLDGKVVNVAGGISFLDAVTSMDFFPGLNLEGYPNRDSTKYAEIYGISSAHTLLRGTLRYKGYMKALNGFVKLGLINREALPAFRPEANPLTWKQLLCDLVGISPSSEHDVLKEAVLKKLGGDNTQLEAAEWLGLLGDEQVPQAESILDALSKHLVMKLSYGPEEKDMIVMRDSFGIRHPSGHLEHKTIDLVAYGDINGFSAMAKTVGLPTAMAAKMLLDGEIGAKGLMGPFSKEIYGPILERIKAEGIIYTTQSTIKP
Turning to B4, the Total was found to be 1 and the Unique came to 1.

B5: SLC25A40 (protein, UniProt Q8TBP6 1-338, looked up)
Mitochondrial glutathione …: MDPETRGQEIIKVTPLQQMLASCTGAILTSVIVTPLDVVKIRLQAQNNPLPKGKCFVYSNGLMDHLCVCEEGGNKLWYKKPGNFQGTLDAFFKIIRNEGIKSLWSGLPPTLVMAVPATVIYFTCYDQLSALLRSKLGENETCIPIVAGIVARFGAVTVISPLELIRTKMQSKKFSYVELHRFVSKKVSEDGWISLWRGWAPTVLRDVPFSAMYWYNYEILKKWLCEKSGLYEPTFMINFTSGALSGSFAAVATLPFDVVKTQKQTQLWTYESHKISMPLHMSTWIIMKNIVAKNGFSGLFSGLIPRLIKIAPACAIMISTYEFGKAFFQKQNVRRQQY
Take B5: the Total was 1 and the Unique came to 1.

B6: SSBP1 (protein, UniProt Q04837 17-148, looked up)
Single-stranded DNA-binding …: ESETTTSLVLERSLNRVHLLGRVGQDPVLRQVEGKNPVTIFSLATNEMWRSGDSEVYQLGDVSQKTTWHRISVFRPGLRDVAYQYVKKGSRIYLEGKIDYGEYMDKNNVRRQATTIIADNIIFLSDQTKEKE
Molecule B6 had a Total of 1 and a Unique of 1.

B7: EXD2 (protein, UniProt Q9NVH0 1-621, looked up)
Exonuclease 3'-5' …: MSRQNLVALTVTTLLGVAVGGFVLWKGIQRRRRSKTSPVTQQPQQKVLGSRELPPPEDDQLHSSAPRSSWKERILKAKVVTVSQEAEWDQIEPLLRSELEDFPVLGIDCEWVNLEGKASPLSLLQMASPSGLCVLVRLPKLICGGKTLPRTLLDILADGTILKVGVGCSEDASKLLQDYGLVVRGCLDLRYLAMRQRNNLLCNGLSLKSLAETVLNFPLDKSLLLRCSNWDAETLTEDQVIYAARDAQISVALFLHLLGYPFSRNSPGEKNDDHSSWRKVLEKCQGVVDIPFRSKGMSRLGEEVNGEATESQQKPRNKKSKMDGMVPGNHQGRDPRKHKRKPLGVGYSARKSPLYDNCFLHAPDGQPLCTCDRRKAQWYLDKGIGELVSEEPFVVKLRFEPAGRPESPGDYYLMVKENLCVVCGKRDSYIRKNVIPHEYRKHFPIEMKDHNSHDVLLLCTSCHAISNYYDNHLKQQLAKEFQAPIGSEEGLRLLEDPERRQVRSGARALLNAESLPTQRKEELLQALREFYNTDVVTEEMLQEAASLETRISNENYVPHGLKVVQCHSQGGLRSLMQLESRWRQHFLDSMQPKHLPQQWSVDHNHQKLLRKFGEDLPIQLS
For B7, the Total is given as 1 and the Unique is on record as 1.

B8: AAAS (protein, UniProt Q9NRG9 2-546, looked up)
Aladin: CSLGLFPPPPPRGQVTLYEHNNELVTGSSYESPPPDFRGQWINLPVLQLTKDPLKTPGRLDHGTRTAFIHHREQVWKRCINIWRDVGLFGVLNEIANSEEEVFEWVKTASGWALALCRWASSLHGSLFPHLSLRSEDLIAEFAQVTNWSSCCLRVFAWHPHTNKFAVALLDDSVRVYNASSTIVPSLKHRLQRNVASLAWKPLSASVLAVACQSCILIWTLDPTSLSTRPSSGCAQVLSHPGHTPVTSLAWAPSGGRLLSASPVDAAIRVWDVSTETCVPLPWFRGGGVTNLLWSPDGSKILATTPSAVFRVWEAQMWTCERWPTLSGRCQTGCWSPDGSRLLFTVLGEPLIYSLSFPERCGEGKGCVGGAKSATIVADLSETTIQTPDGEERLGGEAHSMVWDPSGERLAVLMKGKPRVQDGKPVILLFRTRNSPVFELLPCGIIQGEPGAQPQLITFHPSFNKGALLSVGWSTGRIAHIPLYFVNAQFPRFSPVLGRAQEPPAGGGGSIHDLPLFTETSPTSAPWDPLPGPPPVLPHSPHSHL
For the molecule B8, the Total came out at 1 and the Unique was 1.

B9: RNPS1 (protein, UniProt Q15287 1-305, looked up)
RNA-binding protein with …: MDLSGVKKKSLLGVKENNKKSSTRAPSPTKRKDRSDEKSKDRSKDKGATKESSEKDRGRDKTRKRRSASSGSSSTRSRSSSTSSSGSSTSTGSSSGSSSSSASSRSGSSSTSRSSSSSSSSGSPSPSRRRHDNRRRSRSKSKPPKRDEKERKRRSPSPKPTKVHIGRLTRNVTKDHIMEIFSTYGKIKMIDMPVERMHPHLSKGYAYVEFENPDEAEKALKHMDGGQIDGQEITATAVLAPWPRPPPRRFSPPRRMLPPPPMWRRSPPRMRRRSRSPRRRSPVRRRSRSPGRRRHRSRSSSNSSR
Regarding B9, the Total came out at 1 and the Unique was found to be 1.

B10: PTRH2 (protein, UniProt Q9Y3E5 1-179, looked up)
Peptidyl-tRNA hydrolase 2, …: MPSKSLVMEYLAHPSTLGLAVGVACGMCLGWSLRVCFGMLPKSKTSKTHTDTESEASILGDSGEYKMILVVRNDLKMGKGKVAAQCSHAAVSAYKQIQRRNPEMLKQWEYCGQPKVVVKAPDEETLIALLAHAKMLGLTVSLIQDAGRTQIAPGSQTVLGIGPGPADLIDKVTGHLKLY
Molecule B10 yielded a Total of 1 and a Unique of 1.

B11: NPEPPS (protein, UniProt P55786 1-919, looked up)
Puromycin-sensitive …: MWLAAAAPSLARRLLFLGPPPPPLLLLVFSRSSRRRLHSLGLAAMPEKRPFERLPADVSPINYSLCLKPDLLDFTFEGKLEAAAQVRQATNQIVMNCADIDIITASYAPEGDEEIHATGFNYQNEDEKVTLSFPSTLQTGTGTLKIDFVGELNDKMKGFYRSKYTTPSGEVRYAAVTQFEATDARRAFPCWDEPAIKATFDISLVVPKDRVALSNMNVIDRKPYPDDENLVEVKFARTPVMSTYLVAFVVGEYDFVETRSKDGVCVRVYTPVGKAEQGKFALEVAAKTLPFYKDYFNVPYPLPKIDLIAIADFAAGAMENWGLVTYRETALLIDPKNSCSSSRQWVALVVGHELAHQWFGNLVTMEWWTHLWLNEGFASWIEYLCVDHCFPEYDIWTQFVSADYTRAQELDALDNSHPIEVSVGHPSEVDEIFDAISYSKGASVIRMLHDYIGDKDFKKGMNMYLTKFQQKNAATEDLWESLENASGKPIAAVMNTWTKQMGFPLIYVEAEQVEDDRLLRLSQKKFCAGGSYVGEDCPQWMVPITISTSEDPNQAKLKILMDKPEMNVVLKNVKPDQWVKLNLGTVGFYRTQYSSAMLESLLPGIRDLSLPPVDRLGLQNDLFSLARAGIISTVEVLKVMEAFVNEPNYTVWSDLSCNLGILSTLLSHTDFYEEIQEFVKDVFSPIGERLGWDPKPGEGHLDALLRGLVLGKLGKAGHKATLEEARRRFKDHVEGKQILSADLRSPVYLTVLKHGDGTTLDIMLKLHKQADMQEEKNRIERVLGATLLPDLIQKVLTFALSEEVRPQDTVSVIGGVAGGSKHGRKAAWKFIKDNWEELYNRYQGGFLISRLIKLSVEGFAVDKMAGEVKAFFESHPAPSAERTIQQCCENILLNAAWLKRDAESIHQYLLQRKASPPTV
Consider B11, for which the Total stood at 1 and the Unique turned out to be 1.
